# Test results reported in PMC7804152, “Structural basis for the multi-activity factor Rad5 in replication stress tolerance”.
# Legend:
# Assay in all cases: fluorescence polarization
# [1] = biological target: T1, His-KlRad5 I322A (Kluyveromyces lactis) (UniProt Q6CJM4); conditions: FP: 20 mM Tris pH 7.5, 50 mM (dsDNA, KlHIRAN) or 70 mM (ssDNA) NaCl, 2 mM MgCl2, 1 nM DNA, room temp, recombinant protein, residues 163-1114, protein details: N-terminal His6, label: 5'-FAM
# T1 sequence (looked up): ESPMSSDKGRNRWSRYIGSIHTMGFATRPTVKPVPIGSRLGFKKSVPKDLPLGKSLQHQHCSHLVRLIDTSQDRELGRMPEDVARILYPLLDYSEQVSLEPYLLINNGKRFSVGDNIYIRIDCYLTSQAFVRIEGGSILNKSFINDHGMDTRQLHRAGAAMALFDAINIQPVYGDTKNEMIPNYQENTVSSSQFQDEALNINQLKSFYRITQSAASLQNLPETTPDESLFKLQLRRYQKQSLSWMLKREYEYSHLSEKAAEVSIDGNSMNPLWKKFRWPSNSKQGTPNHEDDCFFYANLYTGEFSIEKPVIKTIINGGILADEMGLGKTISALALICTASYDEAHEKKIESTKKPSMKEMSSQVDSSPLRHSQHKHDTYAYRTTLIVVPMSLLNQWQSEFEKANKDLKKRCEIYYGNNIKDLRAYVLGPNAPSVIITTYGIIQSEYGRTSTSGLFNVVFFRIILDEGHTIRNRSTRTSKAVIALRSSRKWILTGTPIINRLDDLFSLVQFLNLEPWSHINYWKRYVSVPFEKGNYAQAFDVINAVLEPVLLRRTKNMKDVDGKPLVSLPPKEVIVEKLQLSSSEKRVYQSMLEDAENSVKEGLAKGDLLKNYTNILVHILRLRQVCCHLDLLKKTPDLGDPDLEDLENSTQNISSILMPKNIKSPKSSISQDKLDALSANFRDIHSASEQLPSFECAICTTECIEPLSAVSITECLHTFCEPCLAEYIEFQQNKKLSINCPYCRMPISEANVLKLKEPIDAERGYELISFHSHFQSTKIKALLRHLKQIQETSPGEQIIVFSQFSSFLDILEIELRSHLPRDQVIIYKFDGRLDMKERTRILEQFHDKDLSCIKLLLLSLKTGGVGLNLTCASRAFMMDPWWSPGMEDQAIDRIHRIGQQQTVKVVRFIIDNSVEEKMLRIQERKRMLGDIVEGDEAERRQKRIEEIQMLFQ
# [2] = biological target: T2, His-KlRad5 M323A (Kluyveromyces lactis) (UniProt Q6CJM4); conditions: FP: 20 mM Tris pH 7.5, 50 mM (dsDNA, KlHIRAN) or 70 mM (ssDNA) NaCl, 2 mM MgCl2, 1 nM DNA, room temp, recombinant protein, residues 163-1114, protein details: N-terminal His6, label: 5'-FAM
# T2 sequence (looked up): T1 sequence (looked up) with A160I, M161A
# [3] = biological target: T3, KlRad5 K1023E (Kluyveromyces lactis) (UniProt Q6CJM4); conditions: 50 mM NaCl; FP: 20 mM Tris pH 7.5, 50 mM (dsDNA, KlHIRAN) or 70 mM (ssDNA) NaCl, 2 mM MgCl2, 1 nM DNA, room temp; recombinant protein; residues 163-1114; label: 5'-FAM
# T3 sequence (looked up): T1 sequence (looked up) with A160I, K861E
Sequence,binding result ([1]; single-stranded DNA),binding result ([2]; single-stranded DNA),binding result [1],binding result [2],binding result [3]
"TTTTTTTCGTCTTCGGCAATTTTTT [S1 ssDNA, 5'-FAM]",binds more weakly,binds more weakly,,,
ACCAGTGCCAGTGAT (double strand) [D2a/D2b dsDNA],,,binds more weakly,binds more weakly,binds more weakly

# Substitutions are numbered along the chain they refer to. A weaker result is weaker than the reference pair of the same experiment. Where a protein sequence is shown, tags need not be part of it. For some assays here: Construct, isoform or probe ends are uncertain for at least one entry. For some assays here: At least one verdict was read from the data and is not stated in words by the source.
